Reference: PubChem BioAssay AID540256 (National Center for Advancing Translational Sciences (NCATS), 2011)
About 3,700 (1.2%) of roughly 300,000 compounds were called active. The shares of active, inactive and inconclusive entries below differ from those in the screen. The call rests on the fitted dose curve; tested in HEK293 cells. Potencies of inconclusive entries are doubtful fits and often do not repeat.

Test: qHTS for Inhibitors of binding or entry into cells for Lassa Virus; further: nearly all actives have a fitted effect of over 50% in size
Details: Lassa virus pseudotype entry inhibition, cell reporter; series mostly up to 37.9 µM
Potency means the concentration at half of the fitted maximal effect.

SMILES | Potency
Cc1cc(Br)ccc1OCCCCN1CCC(C)CC1 | inconclusive: 18.4 µM [inhibitor, single point]
CCC(c1nnnn1CCOC)N1CCN(c2cccc(C(F)(F)F)c2)CC1 (stereo unspecified) | inconclusive: 22.4 µM [inhibitor, single point]
CO/N=C(\CS(=O)(=O)Cc1ccc(OC)cc1)c1ccc(Cl)cc1 | inconclusive: 0.0206 µM [activator, full curve, poor fit]
CCCNC(=O)COc1ncnc2sccc12 | inconclusive: 6.31 µM [inhibitor, partial curve, poor fit]
Cc1cc(C(=O)OCC(=O)NCc2ccco2)c(C)n1-c1ccccc1 | inconclusive: 6.31 µM [inhibitor, partial curve, poor fit]
CN(CC(=O)Nc1cccc(F)c1)C(=O)c1ccncc1 | inconclusive: 0.562 µM [activator, full curve, poor fit]
O=[N+]([O-])c1ccc(N/N=C/c2ccc[nH]2)cc1 | inconclusive: 11.6 µM [inhibitor, single point]
CC(=O)NCc1ccc(-c2csc(-c3cccs3)n2)cc1 | inactive
CC(C)n1c(-c2ccc(N(C)C)cc2)nc2ccccc21 | inconclusive: 3.55 µM [activator, partial curve, poor fit]
CSC1=NSC2=NC(=O)/C(=C\c3cccs3)C(=N)N12 | inconclusive: 1.12 µM [activator, full curve, poor fit]
CC(Sc1nnc(-c2ccccc2F)o1)C(=O)Nc1ccc(N2CCOCC2)cc1 (stereo unspecified) | inconclusive: 1.26 µM [inhibitor, single point]
COc1ccc(S(=O)(=O)N(C)c2ccc(C(=O)NCCC(C)C)cc2)cc1 | active: 8.2 µM
COc1ccc(CNC(=O)CCC2N=C3c4ccccc4N=C(SCc4cccc(F)c4)N3C2=O)cc1 (stereo unspecified) | inconclusive: 11.2 µM [inhibitor, partial curve, poor fit]
Cc1cc(/C=C2\SC(=S)N(C)C2=O)c(C)n1-c1ccccc1O | inconclusive: 12.6 µM [inhibitor, partial curve, poor fit]
COc1ccc(C2NC(=O)NC(C)=C2C(=O)OC2CCCCC2)cc1OC (stereo unspecified) | inconclusive: 2.24 µM [inhibitor, partial curve]
O=C(NC1CCN(Cc2ccccc2)CC1)c1cccc(S(=O)(=O)Nc2ccc(Br)cc2)c1 | inconclusive: 22.4 µM [inhibitor, single point]
O=C(NCc1ccco1)c1ccc(=O)[nH]n1 | inactive
CC(=O)c1cccc(N(C(=O)c2ccccn2)C(C(=O)NC2CCCCC2)c2cccs2)c1 (stereo unspecified) | inactive
O=C(CN1CCN(c2ccc(C(F)(F)F)cn2)CC1)NCc1ccc2c(c1)OCO2 | inconclusive: 25.1 µM [inhibitor, partial curve, poor fit]
Cc1cc2cc(CCNC(=O)c3ccc(C)c([N+](=O)[O-])c3)c(=O)[nH]c2cc1C | inconclusive: 35.5 µM [inhibitor, single point]
CCn1c(C)cc(/C=C2/SC(=O)N(C(C)C(=O)OC)C2=O)c1C (stereo unspecified) | inconclusive: 1.12 µM [activator, partial curve, poor fit]
Nc1c(C(=O)O)cnn1-c1ccc([N+](=O)[O-])cc1 | inactive

Quoted from the listing:
Potency with CSC1=NSC2=NC(=O)/C(=C\c3cccs3)C(=N)N12 is entered as inconclusive: 1.12 µM [activator, full curve, poor fit]
Potency with Nc1c(C(=O)O)cnn1-c1ccc([N+](=O)[O-])cc1 is entered as inactive
Potency with CCn1c(C)cc(/C=C2/SC(=O)N(C(C)C(=O)OC)C2=O)c1C (stereo unspecified) is entered as inconclusive: 1.12 µM [activator, partial curve, poor fit]

The list goes on.

SMILES | Potency
c1coc(CNc2nc(-c3cccs3)cs2)c1 | inconclusive: 3.16 µM [activator, single point]
CC(C)Cc1cc(C(=O)O)c2ccccc2n1 | inactive
CC(C)(C)c1ccc(-c2nc(C#N)c(N3CCC(C(N)=O)CC3)o2)cc1 | inconclusive: 2.82 µM [inhibitor, partial curve, poor fit]
O=C(NCCCn1ccnc1)c1noc2c1CCc1ccccc1-2 | inconclusive: 32.6 µM [activator, partial curve, poor fit]
COc1cc(C(=O)O[C@H]2C/C(C)=C/CC[C@]3(C)O[C@@H]3C(O)C2C(C)C)cc(OC)c1OC (stereo partly specified) | inconclusive: 35.5 µM [inhibitor, single point]
CCCOc1ccc(-c2nnc(-c3cccs3)o2)cc1 | active: 2 µM
CC(C)Oc1ccc(C(=O)Nc2cc(S(=O)(=O)N3CCOCC3)ccc2N2CCOCC2)cc1 | active: 12.6 µM
Cc1cc(C)c(NC(=O)CSc2nccn2C)c(C)c1 | inconclusive: 6.51 µM [activator, partial curve, poor fit]
CSc1cc(-c2ccccc2)n(Cc2c(Cl)cccc2Cl)c(=O)c1C#N | inconclusive: 1.12 µM [inhibitor, partial curve, poor fit]
CN(Cc1ccccc1)C(=O)CN1C(=O)NC(C)(c2ccc(C(C)(C)C)cc2)C1=O (stereo unspecified) | inconclusive: 25.1 µM [inhibitor, partial curve, poor fit]
Cc1nn2c(=O)cc(COC(=O)c3cccc(NC(=O)COc4ccccc4Cl)c3)nc2s1 | inconclusive: 2 µM [inhibitor, full curve]
CCCCn1c(SCc2ccc(C(=O)OC)o2)nc2cc(S(N)(=O)=O)ccc21 | inconclusive: 5.8 µM [inhibitor, partial curve]
O=C(CS(=O)(=O)Nc1ccc(F)cc1Cl)Nc1ccc(F)cc1Cl | inconclusive: 14.1 µM [inhibitor, partial curve, poor fit]
O=C(CNS(=O)(=O)c1ccccc1)N1CCCC1 | inconclusive: 2.82 µM [inhibitor, single point]
O=C(C1COc2ccccc2O1)N(Cc1cccnc1)c1nc2ccc(Cl)cc2s1 (stereo unspecified) | inactive
N#Cc1nc(Cc2cccc3ccccc23)oc1NCCN1CCCCC1 | inactive
COC(=O)C1CCN(C(=O)Cn2nnc(-c3cccc(F)c3)n2)CC1 | inactive
COc1cc(CNc2ccc(N3CCCC3)cc2)ccc1OCc1ccccc1F | inactive
O=[N+]([O-])c1cccc(-c2csc(N/N=C/c3cccc(O)c3)n2)c1 | active: 7.94 µM
Fc1ccc(CNc2ncnc3onc(-c4ccc(F)cc4)c23)cc1 | inactive
Cc1cccc(-n2cc(-c3ccccc3)c3c(NN4CCOCC4)ncnc32)c1 | inconclusive: 15.8 µM [activator, partial curve, poor fit]
CCOc1ccc(NC(=O)Nc2cccn(Cc3ccccc3)c2=O)cc1 | inconclusive: 17.8 µM [inhibitor, single point]

SMILES | Potency
CC(C)(C)N1NC(=O)Nc2ccccc2C1=O | inconclusive: 1.16 µM [activator, single point]
COc1ccc(/C=N/NC(=O)c2c(C)nc3ccc(Br)cn23)cc1OC | inconclusive: 5.62 µM [inhibitor, single point]
O=S(=O)(c1ccccc1)N1CCN(c2nnc(-c3ccccc3)c3ccccc23)CC1 | inconclusive: 15.8 µM [inhibitor, partial curve, poor fit]
O=c1oc(/C=C/c2ccco2)nc2sc3c(c12)CCC3 | inconclusive: 2.82 µM [inhibitor, partial curve, poor fit]
Cc1noc(-c2ccc(-c3noc(-c4cccc(F)c4)n3)cc2)n1 | inactive
COc1ccc(N2C(=O)CC(c3cc(OC)c(OC)c(OC)c3)CC2=O)cc1 | inconclusive: 10 µM [inhibitor, partial curve, poor fit]
COCCCNCCOCCOc1ccccc1-c1ccccc1 | inconclusive: 18.4 µM [inhibitor, single point]
Cc1ccc(CSCC(=O)Nc2cc(S(=O)(=O)N3CCOCC3)ccc2OCC(F)(F)F)cc1 | inconclusive: 8.91 µM [inhibitor, partial curve, poor fit]
CCN1CCCC1CN(Cc1cc2ccc(C)cc2[nH]c1=O)C(=S)Nc1ccc(OC)cc1 (stereo unspecified) | inconclusive: 35.5 µM [inhibitor, single point]
Cc1cc(NC(=S)NC(=O)/C=C/c2ccc(S(=O)(=O)N3CCOCC3)cc2)ccc1Br | inconclusive: 14.1 µM [inhibitor, single point]
Cc1ccc(Nc2nc(=O)c3cccnc3s2)cc1 | inconclusive: 2.91 µM [activator, single point]
C=CCn1c(=O)c2ccccc2n2c(SCc3nnc(-c4ccccc4Br)o3)nnc12 | inactive
CCCCN(CC)C(=O)CSc1nc2n[nH]c(C)c2c(=N)n1-c1cccc(OC)c1 | inconclusive: 14.1 µM [inhibitor, partial curve]
COC(=O)c1c(C)oc2ccc(N(C(C)=O)S(=O)(=O)c3ccccc3)cc12 | inconclusive: 15.8 µM [inhibitor, single point]
COc1cccc(N2CCN(c3ncnc4c3nc3n4CCCCC3)CC2)c1 | inconclusive: 35.5 µM [inhibitor, single point]
Cc1oc(-c2ccc(Cl)cc2)nc1CS(=O)CC(=O)N1CCN(c2cccc(C(F)(F)F)c2)CC1 (stereo unspecified) | inactive
Cc1ccc(CN2C(=O)N/C(=C/c3cc(C)n(-c4ccccn4)c3C)C2=O)cc1 | inconclusive: 11.2 µM [inhibitor, partial curve]
COc1ccc(CC(=O)N/N=C(\C)c2cccs2)cc1 | inactive
COc1cc(/C=N/Nc2nc(Nc3ccccc3)nc(-n3nc(C)cc3C)n2)cc(OC)c1OC | active: 16.4 µM
COc1ccc(/C=N/NC(=S)NCC2CCCO2)cc1 (stereo unspecified) | inconclusive: 2.24 µM [inhibitor, full curve, poor fit]
COC(=O)c1cn(NC(=O)/C=C/c2cc(OC)ccc2OC)c(=O)c2ccccc12 | inconclusive: 0.116 µM [inhibitor, full curve, poor fit]
O=C(CNc1cc(S(=O)(=O)N2CCCC2)ccc1OCC(F)(F)F)Nc1ccc(SC(F)F)cc1 | active: 18.4 µM
